Counter-ions that a name gives are not always drawn. The list shows a part of the results. Many values rest on one well or one pass, so single values are uncertain.
test system: SK-N-BE(2); test: inhibition of N-Myc immunofluorescence signal per cell relative to control (fraction); higher = stronger N-Myc protein reduction; settings: 1 µM; 9 h

Row | Compound | inhibition of N-Myc immunofluorescence signal per cell
1 | Cc1cc(C(=O)CN2CCCC2)c(C)n1-c1ccc(F)cc1 | 0.0499
2 | c1ccc([C@@H]2C[C@H]2NC2CCNCC2)cc1 [GSK-LSD1 (dihydrochloride)] | -0.244
3 | CC(=O)OC(C)(C)/C=C/C(=O)[C@](C)(O)[C@H]1[C@H](O)C[C@@]2(C)[C@@H]3CC=C4[C@H](C[C@H](O)C(=O)C4(C)C)[C@]3(C)C(=O)C[C@]12C [Cucurbitacin B] | 0.579
4 | CN(C)NC(=O)CCC(=O)O [Daminozide] | 0.127
5 | COc1cc(C)[nH]c(=O)c1CNC(=O)c1c(C)n([C@H](C)C2CCOCC2)c2ccccc12 | 0.0249
6 | Cn1c(CCCCCCC(=O)NO)nc2cc(N(CCCl)CCCl)ccc21 | -0.0731
7 | C[C@@H]1CC[C@]2(NC1)O[C@H]1C[C@H]3[C@@H]4CC=C5C[C@@H](O)CC[C@]5(C)[C@H]4CC[C@]3(C)[C@H]1[C@@H]2C [Solasodine] | 0.0695
8 | O=C(O)CNC(=O)C1C(=O)N(C2CCCCC2)C(=O)N(C2CCCCC2)C1=O [Daprodustat] | -0.172
9 | N[C@@H](CNC(=O)C(=O)O)C(=O)O [Dencichine] | 0.0506
10 | C[C@H]1CC[C@]2(NC1)O[C@H]1C[C@H]3[C@@H]4CC[C@H]5C[C@@H](O[C@@H]6O[C@H](CO)[C@H](O[C@@H]7O[C@H](CO)[C@@H](O)[C@H](O[C@@H]8OC[C@@H](O)[C@H](O)[C@H]8O)[C@H]7O[C@@H]7O[C@H](CO)[C@@H](O)[C@H](O)[C@H]7O)[C@H](O)[C@H]6O)CC[C@]5(C)[C@H]4CC[C@]3(C)[C@H]1[C@@H]2C [Tomatine] | -0.0411

3 compounds already listed, ordered by number of heavy atoms, descending.
Row | Compound | inhibition of N-Myc immunofluorescence signal per cell
7 | C[C@@H]1CC[C@]2(NC1)O[C@H]1C[C@H]3[C@@H]4CC=C5C[C@@H](O)CC[C@]5(C)[C@H]4CC[C@]3(C)[C@H]1[C@@H]2C [Solasodine] | 0.0695
8 | O=C(O)CNC(=O)C1C(=O)N(C2CCCCC2)C(=O)N(C2CCCCC2)C1=O [Daprodustat] | -0.172
2 | c1ccc([C@@H]2C[C@H]2NC2CCNCC2)cc1 [GSK-LSD1 (dihydrochloride)] | -0.244

— the supplement of paper PMC12259267, “Disruption of the KLHL37–N-Myc complex restores N-Myc degradation and arrests neuroblastoma growth in mouse models” (The Journal of Clinical Investigation, 2025)
